From PMC5472764
Where a chain is given by its changes, count along the chain named. Names and notes keep the numbering of the source. No constants are given. Whether binding was seen depends on the method and setting. For part of these data: In cells and extracts the contact can be indirect. Some results given as binding are weak or reduced against the parent protein; the word gives no strength. Sequences can lack the tags named with a protein. Blank lines part the entries; values can stand above or below the molecule they belong to.

Protein sequences, listed by entry. Tags and fused reporters are not part of them. Residues count along the entry.
UniProt P11881, residues 1-610: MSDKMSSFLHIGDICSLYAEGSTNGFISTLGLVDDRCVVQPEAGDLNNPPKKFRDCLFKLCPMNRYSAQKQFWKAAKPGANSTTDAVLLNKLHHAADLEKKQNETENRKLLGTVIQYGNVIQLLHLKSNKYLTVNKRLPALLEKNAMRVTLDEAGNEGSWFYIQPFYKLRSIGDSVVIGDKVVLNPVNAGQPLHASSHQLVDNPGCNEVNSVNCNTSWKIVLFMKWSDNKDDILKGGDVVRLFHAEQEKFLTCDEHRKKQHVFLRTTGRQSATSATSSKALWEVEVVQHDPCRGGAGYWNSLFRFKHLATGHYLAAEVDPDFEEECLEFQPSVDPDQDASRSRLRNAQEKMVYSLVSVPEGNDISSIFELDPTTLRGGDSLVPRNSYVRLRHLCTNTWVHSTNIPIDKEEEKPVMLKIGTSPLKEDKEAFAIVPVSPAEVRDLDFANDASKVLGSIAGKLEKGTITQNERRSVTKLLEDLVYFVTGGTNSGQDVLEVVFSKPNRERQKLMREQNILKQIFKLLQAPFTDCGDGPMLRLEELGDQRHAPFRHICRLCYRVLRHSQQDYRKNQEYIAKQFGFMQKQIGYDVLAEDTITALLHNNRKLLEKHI

What was measured:
[1] = biological target: T1, Tespa1 (two-hybrid fusion) (mouse) (UniProt Q3U132); test: two-hybrid; 'a two-hybrid system'; kind not told
T1 sequence: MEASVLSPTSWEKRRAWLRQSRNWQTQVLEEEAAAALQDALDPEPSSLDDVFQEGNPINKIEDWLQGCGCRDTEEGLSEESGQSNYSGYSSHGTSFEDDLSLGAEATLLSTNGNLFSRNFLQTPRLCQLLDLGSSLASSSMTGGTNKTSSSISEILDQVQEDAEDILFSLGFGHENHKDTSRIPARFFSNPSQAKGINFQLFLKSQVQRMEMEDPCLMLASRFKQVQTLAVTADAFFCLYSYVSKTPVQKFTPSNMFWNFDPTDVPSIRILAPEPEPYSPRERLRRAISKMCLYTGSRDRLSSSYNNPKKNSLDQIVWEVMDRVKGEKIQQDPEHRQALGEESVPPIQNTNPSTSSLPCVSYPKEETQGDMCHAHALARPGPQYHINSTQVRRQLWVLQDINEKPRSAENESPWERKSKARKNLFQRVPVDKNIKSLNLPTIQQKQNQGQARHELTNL

[2] = biological target: T2, Flag-tagged full-length Tespa1 (FL) (mouse) (UniProt Q3U132); test: co-IP; HEK293 cells co-transfected with Flag-tagged Tespa1 and HA-tagged PLC-γ1 or its mutants; NP-40 lysis buffer (50 mM Tris pH 7.4, 150 mM NaCl, 1% NP-40); anti-Flag beads 4 h at 4 °C; blots with anti-Flag and anti-HA
T2 sequence: T1 sequence

[3] = biological target: T3, Flag-tagged Tespa1 in Jurkat cells (J-Tespa1) (mouse) (UniProt Q3U132); test: co-IP; Jurkat cells stably expressing Flag-tagged Tespa1 or Tespa1-F187A/F188A, unstimulated or stimulated with anti-CD3 and anti-CD28 for 5 or 10 min; NP-40 lysis buffer; anti-Flag beads; blots for the endogenous partner
T3 sequence: T1 sequence

Molecule: IP3R1-N (two-hybrid fusion) (from UniProt P11881 1-610) (domain or fragment)
binding [1]: binds

B1: HA-tagged full-length PLC-γ1 (FL) (enzyme, UniProt P19174 1-1290)
chain: MAGAASPCANGCGPGAPSDAEVLHLCRSLEVGTVMTLFYSKKSQRPERKTFQVKLETRQITWSRGADKIEGAIDIREIKEIRPGKTSRDFDRYQEDPAFRPDQSHCFVILYGMEFRLKTLSLQATSEDEVNMWIKGLTWLMEDTLQAPTPLQIERWLRKQFYSVDRNREDRISAKDLKNMLSQVNYRVPNMRFLRERLTDLEQRSGDITYGQFAQLYRSLMYSAQKTMDLPFLEASTLRAGERPELCRVSLPEFQQFLLDYQGELWAVDRLQVQEFMLSFLRDPLREIEEPYFFLDEFVTFLFSKENSVWNSQLDAVCPDTMNNPLSHYWISSSHNTYLTGDQFSSESSLEAYARCLRMGCRCIELDCWDGPDGMPVIYHGHTLTTKIKFSDVLHTIKEHAFVASEYPVILSIEDHCSIAQQRNMAQYFKKVLGDTLLTKPVEISADGLPSPNQLKRKILIKHKKLAEGSAYEEVPTSMMYSENDISNSIKNGILYLEDPVNHEWYPHYFVLTSSKIYYSEETSSDQGNEDEEEPKEVSSSTELHSNEKWFHGKLGAGRDGRHIAERLLTEYCIETGAPDGSFLVRESETFVGDYTLSFWRNGKVQHCRIHSRQDAGTPKFFLTDNLVFDSLYDLITHYQQVPLRCNEFEMRLSEPVPQTNAHESKEWYHASLTRAQAEHMLMRVPRDGAFLVRKRNEPNSYAISFRAEGKIKHCRVQQEGQTVMLGNSEFDSLVDLISYYEKHPLYRKMKLRYPINEEALEKIGTAEPDYGALYEGRNPGFYVEANPMPTFKCAVKALFDYKAQREDELTFIKSAIIQNVEKQEGGWWRGDYGGKKQLWFPSNYVEEMVNPVALEPEREHLDENSPLGDLLRGVLDVPACQIAIRPEGKNNRLFVFSISMASVAHWSLDVAADSQEELQDWVKKIREVAQTADARLTEGKIMERRKKIALELSELVVYCRPVPFDEEKIGTERACYRDMSSFPETKAEKYVNKAKGKKFLQYNRLQLSRIYPKGQRLDSSNYDPLPMWICGSQLVALNFQTPDKPMQMNQALFMTGRHCGYVLQPSTMRDEAFDPFDKSSLRGLEPCAISIEVLGARHLPKNGRGIVCPFVEIEVAGAEYDSTKQKTEFVVDNGLNPVWPAKPFHFQISNPEFAFLRFVVYEEDMFSDQNFLAQATFPVKGLKTGYRAVPLKNNYSEDLELASLLIKIDIFPAKENGDLSPFSGTSLRERGSDASGQLFHGRAREGSFESRYQQPFEDFRISQEHLADHFDSRERRAPRRTRVNGDNRL
binding [2]: binds weakly

B4: PLC-γ1 D1019K (enzyme, UniProt P19174 1-1290)
chain: B1 chain with D1019K
binding [2]: binds

Further lines, results first:

binding [3]: binds
B2: PLC-γ1, endogenous in Jurkat cells (enzyme, UniProt P19174 1-1290)
chain: B1 chain

binding [2]: binds
B3: PLC-γ1 Y747/R748E (enzyme, UniProt P19174 1-1290)
chain: B1 chain with Y747E, R748E

binding [2]: binds
B5: PLC-γ1 E347K (enzyme, UniProt P19174 1-1290)
chain: B1 chain with E347K
